Results are given in words; binding and its absence hold for the method and conditions named. Binding seen in cells or lysates may run through a third protein. Some entries that bind do so weakly or less than the wild type.
Key:
[1] = target: T1, CPSF2 (human (endogenous in HEK293 and HeLa)) (UniProt Q9P2I0); assay: co-IP; CPSF2 antibody on Dynabeads, lysate of CDK9as HEK293 cells treated 30 min with DMSO or NA (1-NA-PP1); lysis with 1% NP-40, 150 mM NaCl, Benzonase; Western blot
T1 sequence: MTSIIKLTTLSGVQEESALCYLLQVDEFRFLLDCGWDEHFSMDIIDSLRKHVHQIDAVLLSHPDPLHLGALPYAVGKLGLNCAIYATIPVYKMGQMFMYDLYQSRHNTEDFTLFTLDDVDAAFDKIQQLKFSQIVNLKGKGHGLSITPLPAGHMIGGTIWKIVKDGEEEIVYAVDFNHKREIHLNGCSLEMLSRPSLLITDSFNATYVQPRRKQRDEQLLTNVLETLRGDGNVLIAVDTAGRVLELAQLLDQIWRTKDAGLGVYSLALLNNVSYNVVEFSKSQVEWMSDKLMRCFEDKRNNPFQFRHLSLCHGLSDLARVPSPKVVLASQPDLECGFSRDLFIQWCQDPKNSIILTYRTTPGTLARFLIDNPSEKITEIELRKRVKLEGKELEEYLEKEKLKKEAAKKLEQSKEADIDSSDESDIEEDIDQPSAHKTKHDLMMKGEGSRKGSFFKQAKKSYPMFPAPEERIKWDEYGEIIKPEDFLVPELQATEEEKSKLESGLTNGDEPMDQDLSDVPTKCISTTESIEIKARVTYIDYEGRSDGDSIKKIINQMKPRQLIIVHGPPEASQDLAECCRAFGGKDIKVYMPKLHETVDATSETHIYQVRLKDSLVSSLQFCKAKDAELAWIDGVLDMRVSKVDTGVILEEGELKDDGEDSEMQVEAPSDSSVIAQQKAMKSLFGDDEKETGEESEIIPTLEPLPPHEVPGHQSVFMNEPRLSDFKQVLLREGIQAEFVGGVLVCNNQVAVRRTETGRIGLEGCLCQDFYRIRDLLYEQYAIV

By UniProt entry, the sequences of proteins in these tests, tags left out.
UniProt O75533: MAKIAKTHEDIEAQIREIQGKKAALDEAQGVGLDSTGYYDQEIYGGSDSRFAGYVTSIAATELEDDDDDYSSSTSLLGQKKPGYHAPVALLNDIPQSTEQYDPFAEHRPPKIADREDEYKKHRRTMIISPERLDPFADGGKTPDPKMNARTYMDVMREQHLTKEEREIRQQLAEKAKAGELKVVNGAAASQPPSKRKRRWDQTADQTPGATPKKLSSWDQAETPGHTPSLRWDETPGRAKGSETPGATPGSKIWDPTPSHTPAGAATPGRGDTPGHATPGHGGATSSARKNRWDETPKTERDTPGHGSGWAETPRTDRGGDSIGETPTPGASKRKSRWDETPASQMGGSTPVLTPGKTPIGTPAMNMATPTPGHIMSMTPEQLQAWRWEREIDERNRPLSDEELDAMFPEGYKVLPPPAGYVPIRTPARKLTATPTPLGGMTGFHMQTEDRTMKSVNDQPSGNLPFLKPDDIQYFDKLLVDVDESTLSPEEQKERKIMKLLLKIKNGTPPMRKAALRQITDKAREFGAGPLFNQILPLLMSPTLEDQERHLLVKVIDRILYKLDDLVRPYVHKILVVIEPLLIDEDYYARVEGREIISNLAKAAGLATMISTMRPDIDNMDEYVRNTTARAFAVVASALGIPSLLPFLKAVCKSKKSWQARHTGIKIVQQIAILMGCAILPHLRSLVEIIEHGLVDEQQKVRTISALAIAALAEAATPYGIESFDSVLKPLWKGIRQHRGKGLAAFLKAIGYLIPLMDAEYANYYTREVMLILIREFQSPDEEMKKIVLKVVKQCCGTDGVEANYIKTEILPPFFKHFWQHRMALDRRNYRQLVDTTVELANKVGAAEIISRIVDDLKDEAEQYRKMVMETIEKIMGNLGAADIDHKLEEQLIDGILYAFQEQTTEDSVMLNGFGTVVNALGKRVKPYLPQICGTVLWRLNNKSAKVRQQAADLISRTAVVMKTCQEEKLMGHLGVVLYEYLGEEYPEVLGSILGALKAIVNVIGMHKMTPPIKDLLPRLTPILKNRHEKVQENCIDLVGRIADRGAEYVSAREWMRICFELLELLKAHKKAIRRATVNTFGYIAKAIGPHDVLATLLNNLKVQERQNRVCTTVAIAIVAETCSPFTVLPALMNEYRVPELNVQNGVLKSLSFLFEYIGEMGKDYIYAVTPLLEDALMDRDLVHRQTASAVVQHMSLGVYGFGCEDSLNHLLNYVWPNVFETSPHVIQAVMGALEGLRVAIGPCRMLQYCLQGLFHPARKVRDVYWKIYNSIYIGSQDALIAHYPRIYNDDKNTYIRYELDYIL
UniProt Q13435: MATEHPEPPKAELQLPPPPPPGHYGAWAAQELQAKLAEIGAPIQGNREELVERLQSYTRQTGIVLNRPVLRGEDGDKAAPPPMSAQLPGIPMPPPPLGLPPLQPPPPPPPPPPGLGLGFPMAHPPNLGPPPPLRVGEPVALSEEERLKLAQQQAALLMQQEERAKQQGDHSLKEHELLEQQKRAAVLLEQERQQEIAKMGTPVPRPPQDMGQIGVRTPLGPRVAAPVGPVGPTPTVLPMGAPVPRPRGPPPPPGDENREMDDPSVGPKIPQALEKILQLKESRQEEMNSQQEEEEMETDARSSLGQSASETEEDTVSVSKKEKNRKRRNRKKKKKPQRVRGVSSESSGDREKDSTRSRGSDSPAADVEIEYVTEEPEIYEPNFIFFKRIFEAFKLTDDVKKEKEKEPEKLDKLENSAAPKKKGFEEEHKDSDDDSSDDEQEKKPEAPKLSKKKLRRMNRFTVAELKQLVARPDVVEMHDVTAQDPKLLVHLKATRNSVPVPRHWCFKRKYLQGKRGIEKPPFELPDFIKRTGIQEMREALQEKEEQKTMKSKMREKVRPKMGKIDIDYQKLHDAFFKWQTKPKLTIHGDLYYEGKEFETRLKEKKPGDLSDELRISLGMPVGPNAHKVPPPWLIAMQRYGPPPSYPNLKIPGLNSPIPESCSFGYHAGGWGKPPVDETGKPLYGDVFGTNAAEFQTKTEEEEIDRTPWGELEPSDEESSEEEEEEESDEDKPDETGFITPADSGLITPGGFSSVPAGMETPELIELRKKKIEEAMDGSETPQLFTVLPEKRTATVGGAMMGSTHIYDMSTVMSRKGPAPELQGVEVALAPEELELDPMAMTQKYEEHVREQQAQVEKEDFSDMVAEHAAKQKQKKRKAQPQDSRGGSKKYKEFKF
UniProt Q15393: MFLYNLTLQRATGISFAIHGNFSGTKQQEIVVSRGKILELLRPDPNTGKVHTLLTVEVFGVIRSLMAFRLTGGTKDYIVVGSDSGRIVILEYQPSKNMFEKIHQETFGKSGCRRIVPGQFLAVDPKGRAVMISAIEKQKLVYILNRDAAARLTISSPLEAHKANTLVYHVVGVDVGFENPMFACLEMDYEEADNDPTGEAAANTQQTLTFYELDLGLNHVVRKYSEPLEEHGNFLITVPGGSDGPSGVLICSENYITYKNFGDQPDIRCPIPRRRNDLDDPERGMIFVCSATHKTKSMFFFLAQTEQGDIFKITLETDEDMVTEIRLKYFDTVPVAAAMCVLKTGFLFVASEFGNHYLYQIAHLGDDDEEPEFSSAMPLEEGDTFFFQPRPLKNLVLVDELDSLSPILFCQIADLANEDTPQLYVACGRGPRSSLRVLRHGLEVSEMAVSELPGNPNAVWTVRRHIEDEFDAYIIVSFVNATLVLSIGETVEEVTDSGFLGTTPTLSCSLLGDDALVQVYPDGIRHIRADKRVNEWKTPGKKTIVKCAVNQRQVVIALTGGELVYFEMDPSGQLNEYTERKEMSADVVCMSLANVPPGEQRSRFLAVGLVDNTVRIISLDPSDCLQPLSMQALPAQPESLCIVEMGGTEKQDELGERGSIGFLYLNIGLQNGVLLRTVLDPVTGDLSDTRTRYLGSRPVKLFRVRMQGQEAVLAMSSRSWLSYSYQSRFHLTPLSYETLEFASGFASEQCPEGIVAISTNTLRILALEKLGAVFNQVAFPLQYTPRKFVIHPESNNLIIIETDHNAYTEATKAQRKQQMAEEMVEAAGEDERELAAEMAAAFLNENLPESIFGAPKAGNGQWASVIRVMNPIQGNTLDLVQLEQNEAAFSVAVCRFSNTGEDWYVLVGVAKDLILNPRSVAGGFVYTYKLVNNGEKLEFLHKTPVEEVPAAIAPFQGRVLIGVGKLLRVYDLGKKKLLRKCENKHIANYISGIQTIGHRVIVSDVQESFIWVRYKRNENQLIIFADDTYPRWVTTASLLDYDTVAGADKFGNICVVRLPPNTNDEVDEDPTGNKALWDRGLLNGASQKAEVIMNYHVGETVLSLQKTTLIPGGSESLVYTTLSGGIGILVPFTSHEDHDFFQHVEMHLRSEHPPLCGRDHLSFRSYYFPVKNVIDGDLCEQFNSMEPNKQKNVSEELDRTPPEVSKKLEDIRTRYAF

[2] = target: SF3B1 (human (endogenous in HEK293 and HeLa)) (UniProt O75533); assay: co-IP; SF3B1 antibody on Dynabeads, lysate of CDK9as HEK293 cells treated 30 min with DMSO, NA or DRB; lysis with 1% NP-40, 150 mM NaCl, Benzonase; Western blot

binding [1] | binding [2] | Substance
binds |  | SF3B1 (from UniProt O75533 1-1304)
 | binds | SF3B2 (from UniProt Q13435 1-895)
binds |  | SF3B3 (from UniProt Q15393 1-1217)
